These are yes or no findings as the source states them, for the method shown. For some of these results: Binding can be weak; no strength is given. For some of these results: Sequences can lack the tags named with a protein. For some of these results: In cells and extracts the contact can be indirect. One block for each molecule: values may come before it.
How the values were obtained:
[1] = molecular target: T1, ARC6TP-NLuc-ARC6 (Arabidopsis thaliana) (UniProt Q9FIG9); assay: split reporter
T1 sequence: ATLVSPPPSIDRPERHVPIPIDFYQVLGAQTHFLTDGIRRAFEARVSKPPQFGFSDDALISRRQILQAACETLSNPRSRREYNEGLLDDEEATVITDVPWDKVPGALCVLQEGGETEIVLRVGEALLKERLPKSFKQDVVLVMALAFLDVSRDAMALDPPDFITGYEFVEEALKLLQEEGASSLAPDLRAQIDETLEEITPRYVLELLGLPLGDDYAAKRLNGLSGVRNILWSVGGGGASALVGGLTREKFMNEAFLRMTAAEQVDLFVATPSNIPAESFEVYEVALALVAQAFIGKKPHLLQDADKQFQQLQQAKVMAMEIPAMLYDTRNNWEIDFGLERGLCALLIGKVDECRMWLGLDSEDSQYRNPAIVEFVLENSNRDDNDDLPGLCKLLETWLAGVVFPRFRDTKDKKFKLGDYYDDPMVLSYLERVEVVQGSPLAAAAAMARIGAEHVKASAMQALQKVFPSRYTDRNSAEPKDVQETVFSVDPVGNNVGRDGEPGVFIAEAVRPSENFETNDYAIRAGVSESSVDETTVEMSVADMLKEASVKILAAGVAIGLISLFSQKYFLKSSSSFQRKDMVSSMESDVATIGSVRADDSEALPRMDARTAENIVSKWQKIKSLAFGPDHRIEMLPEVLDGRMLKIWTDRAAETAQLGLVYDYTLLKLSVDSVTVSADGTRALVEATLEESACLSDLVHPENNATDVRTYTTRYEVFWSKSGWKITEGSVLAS

[2] = molecular target: T2, ARC6-eGFP (Arabidopsis thaliana) (UniProt Q9FIG9); assay: co-IP
T2 sequence: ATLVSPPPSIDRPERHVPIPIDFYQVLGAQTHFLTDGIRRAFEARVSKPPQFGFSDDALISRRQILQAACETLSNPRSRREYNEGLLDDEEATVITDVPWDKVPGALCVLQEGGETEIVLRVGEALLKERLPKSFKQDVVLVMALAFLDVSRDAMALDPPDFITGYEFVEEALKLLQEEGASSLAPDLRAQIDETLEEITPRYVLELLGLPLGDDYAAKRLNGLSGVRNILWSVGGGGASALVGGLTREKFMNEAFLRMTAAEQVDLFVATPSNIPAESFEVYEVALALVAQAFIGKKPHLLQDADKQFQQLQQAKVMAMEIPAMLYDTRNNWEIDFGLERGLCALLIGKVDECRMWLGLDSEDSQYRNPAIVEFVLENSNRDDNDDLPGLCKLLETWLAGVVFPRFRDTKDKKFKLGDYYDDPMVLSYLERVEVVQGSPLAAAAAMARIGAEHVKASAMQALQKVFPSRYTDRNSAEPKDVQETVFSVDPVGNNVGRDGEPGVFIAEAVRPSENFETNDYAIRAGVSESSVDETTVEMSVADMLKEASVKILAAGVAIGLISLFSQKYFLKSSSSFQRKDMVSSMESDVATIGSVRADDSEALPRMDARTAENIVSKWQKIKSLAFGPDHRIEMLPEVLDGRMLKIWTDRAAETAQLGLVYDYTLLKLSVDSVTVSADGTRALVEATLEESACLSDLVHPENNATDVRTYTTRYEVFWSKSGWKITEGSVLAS

[3] = molecular target: T3, ARC3_(41-598), partner of AD-ARC6 derivatives in the two-hybrid (Arabidopsis thaliana) (UniProt Q6F6B5); assay: two-hybrid
T3 sequence: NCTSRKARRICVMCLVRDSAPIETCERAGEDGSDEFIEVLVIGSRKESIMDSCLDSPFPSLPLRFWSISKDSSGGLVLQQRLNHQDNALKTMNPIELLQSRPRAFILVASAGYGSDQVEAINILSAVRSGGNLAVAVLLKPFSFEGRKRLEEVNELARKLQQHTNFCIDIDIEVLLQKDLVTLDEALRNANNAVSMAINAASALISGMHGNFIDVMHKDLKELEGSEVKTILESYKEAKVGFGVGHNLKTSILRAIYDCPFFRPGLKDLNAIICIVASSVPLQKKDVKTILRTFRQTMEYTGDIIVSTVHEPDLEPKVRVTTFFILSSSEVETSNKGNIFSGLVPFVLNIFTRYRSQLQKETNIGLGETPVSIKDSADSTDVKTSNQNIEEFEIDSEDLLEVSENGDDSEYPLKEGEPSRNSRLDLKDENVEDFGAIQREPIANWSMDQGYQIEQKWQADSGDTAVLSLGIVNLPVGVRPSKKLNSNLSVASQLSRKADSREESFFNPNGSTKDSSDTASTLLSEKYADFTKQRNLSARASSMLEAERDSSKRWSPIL

[4] = molecular target: T4, ARC3_(41-741), partner of AD-ARC6 derivatives in the two-hybrid (Arabidopsis thaliana) (UniProt Q6F6B5); assay: two-hybrid
T4 sequence: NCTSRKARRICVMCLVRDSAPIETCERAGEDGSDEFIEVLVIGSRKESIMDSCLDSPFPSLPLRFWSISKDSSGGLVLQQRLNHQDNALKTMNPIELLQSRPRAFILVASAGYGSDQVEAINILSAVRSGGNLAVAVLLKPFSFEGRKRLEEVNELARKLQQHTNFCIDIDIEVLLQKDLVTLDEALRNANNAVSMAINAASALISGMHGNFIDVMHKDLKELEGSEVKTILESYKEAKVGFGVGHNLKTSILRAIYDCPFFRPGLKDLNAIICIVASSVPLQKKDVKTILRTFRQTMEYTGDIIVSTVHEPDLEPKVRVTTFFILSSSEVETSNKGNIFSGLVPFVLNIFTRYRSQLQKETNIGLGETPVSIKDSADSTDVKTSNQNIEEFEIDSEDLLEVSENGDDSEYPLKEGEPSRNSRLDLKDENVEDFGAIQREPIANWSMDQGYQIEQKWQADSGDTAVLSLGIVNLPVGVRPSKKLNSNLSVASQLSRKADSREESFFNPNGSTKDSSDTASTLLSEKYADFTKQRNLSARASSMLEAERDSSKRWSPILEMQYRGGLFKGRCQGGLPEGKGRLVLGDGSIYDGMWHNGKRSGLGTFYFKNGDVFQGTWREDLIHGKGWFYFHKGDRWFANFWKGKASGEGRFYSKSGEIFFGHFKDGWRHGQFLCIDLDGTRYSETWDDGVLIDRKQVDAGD

[5] = molecular target: T5, ARC3_(598-741) (Arabidopsis thaliana) (UniProt Q6F6B5); assay: two-hybrid
T5 sequence: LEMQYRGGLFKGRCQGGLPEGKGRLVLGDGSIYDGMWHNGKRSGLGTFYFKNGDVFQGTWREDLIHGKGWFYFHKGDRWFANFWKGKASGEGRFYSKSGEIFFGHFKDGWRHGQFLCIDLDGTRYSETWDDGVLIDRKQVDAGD

AtDjA24 = assay: two-hybrid
[6] = molecular target: BD-FtsZ2 (Arabidopsis thaliana); assay: two-hybrid
[7] = molecular target: ARC3_(Δ630-675) (Arabidopsis thaliana); assay: two-hybrid

Molecule: ARC6_(ΔPPQ) (from UniProt Q9FIG9) (domain or fragment)
binding [3]: binds
binding [4]: binds
binding [5]: binds

B2: ARC6_(ΔJLD) (domain or fragment, UniProt Q9FIG9)
chain: ATLVSPPPSIDRPERHVPIPILDDEEATVITDVPWDKVPGALCVLQEGGETEIVLRVGEALLKERLPKSFKQDVVLVMALAFLDVSRDAMALDPPDFITGYEFVEEALKLLQEEGASSLAPDLRAQIDETLEEITPRYVLELLGLPLGDDYAAKRLNGLSGVRNILWSVGGGGASALVGGLTREKFMNEAFLRMTAAEQVDLFVATPSNIPAESFEVYEVALALVAQAFIGKKPHLLQDADKQFQQLQQAKVMAMEIPAMLYDTRNNWEIDFGLERGLCALLIGKVDECRMWLGLDSEDSQYRNPAIVEFVLENSNRDDNDDLPGLCKLLETWLAGVVFPRFRDTKDKKFKLGDYYDDPMVLSYLERVEVVQGSPLAAAAAMARIGAEHVKASAMQALQKVFPSRYTDRNSAEPKDVQETVFSVDPVGNNVGRDGEPGVFIAEAVRPSENFETNDYAIRAGVSESSVDETTVEMSVADMLKE
binding [6]: binds

B3: ARC3_(41-598), partner of the BD-FtsZ proteins in the two-hybrid (domain or fragment, UniProt Q6F6B5 41-598)
chain: NCTSRKARRICVMCLVRDSAPIETCERAGEDGSDEFIEVLVIGSRKESIMDSCLDSPFPSLPLRFWSISKDSSGGLVLQQRLNHQDNALKTMNPIELLQSRPRAFILVASAGYGSDQVEAINILSAVRSGGNLAVAVLLKPFSFEGRKRLEEVNELARKLQQHTNFCIDIDIEVLLQKDLVTLDEALRNANNAVSMAINAASALISGMHGNFIDVMHKDLKELEGSEVKTILESYKEAKVGFGVGHNLKTSILRAIYDCPFFRPGLKDLNAIICIVASSVPLQKKDVKTILRTFRQTMEYTGDIIVSTVHEPDLEPKVRVTTFFILSSSEVETSNKGNIFSGLVPFVLNIFTRYRSQLQKETNIGLGETPVSIKDSADSTDVKTSNQNIEEFEIDSEDLLEVSENGDDSEYPLKEGEPSRNSRLDLKDENVEDFGAIQREPIANWSMDQGYQIEQKWQADSGDTAVLSLGIVNLPVGVRPSKKLNSNLSVASQLSRKADSREESFFNPNGSTKDSSDTASTLLSEKYADFTKQRNLSARASSMLEAERDSSKRWSPIL
binding [6]: binds

B4: ARC6_(68-614) (domain or fragment, UniProt Q9FIG9 68-614)
chain: ATLVSPPPSIDRPERHVPIPIDFYQVLGAQTHFLTDGIRRAFEARVSKPPQFGFSDDALISRRQILQAACETLSNPRSRREYNEGLLDDEEATVITDVPWDKVPGALCVLQEGGETEIVLRVGEALLKERLPKSFKQDVVLVMALAFLDVSRDAMALDPPDFITGYEFVEEALKLLQEEGASSLAPDLRAQIDETLEEITPRYVLELLGLPLGDDYAAKRLNGLSGVRNILWSVGGGGASALVGGLTREKFMNEAFLRMTAAEQVDLFVATPSNIPAESFEVYEVALALVAQAFIGKKPHLLQDADKQFQQLQQAKVMAMEIPAMLYDTRNNWEIDFGLERGLCALLIGKVDECRMWLGLDSEDSQYRNPAIVEFVLENSNRDDNDDLPGLCKLLETWLAGVVFPRFRDTKDKKFKLGDYYDDPMVLSYLERVEVVQGSPLAAAAAMARIGAEHVKASAMQALQKVFPSRYTDRNSAEPKDVQETVFSVDPVGNNVGRDGEPGVFIAEAVRPSENFETNDYAIRAGVSESSVDETTVEMSVADMLKE
binding [7]: no binding
binding [6]: binds

More lines, now with the values ahead:

binding [1]: binds
Molecule: FtsZ2-CLuc (Arabidopsis thaliana)

binding [2]: binds
Molecule: FtsZ2-6×HA (Arabidopsis thaliana)

binding (AtDjA24): binds
B1: cpHsp70-1 (protein, UniProt Q9STW6 1-718)
chain: MASSAAQIHVLGGIGFASSSSSKRNLNGKGGTFMPRSAFFGTRTGPFSTPTSAFLRMGTRNGGGASRYAVGPVRVVNEKVVGIDLGTTNSAVAAMEGGKPTIVTNAEGQRTTPSVVAYTKSGDRLVGQIAKRQAVVNPENTFFSVKRFIGRKMNEVDEESKQVSYRVVRDENNNVKLECPAINKQFAAEEISAQVLRKLVDDASRFLNDKVTKAVITVPAYFNDSQRTATKDAGRIAGLEVLRIINEPTAASLAYGFDRKANETILVFDLGGGTFDVSVLEVGDGVFEVLSTSGDTHLGGDDFDKRVVDWLAAEFKKDEGIDLLKDKQALQRLTEAAEKAKIELSSLTQTNMSLPFITATADGPKHIETTLTRAKFEELCSDLLDRVRTPVENSLRDAKLSFKDIDEVILVGGSTRIPAVQELVRKVTGKEPNVTVNPDEVVALGAAVQAGVLAGDVSDIVLLDVTPLSIGLETLGGVMTKIIPRNTTLPTSKSEVFSTAADGQTSVEINVLQGEREFVRDNKSLGSFRLDGIPPAPRGVPQIEVKFDIDANGILSVSAVDKGTGKKQDITITGASTLPKDEVDQMVQEAERFAKDDKEKRDAIDTKNQADSVVYQTEKQLKELGEKIPGEVKEKVEAKLQELKDKIGSGSTQEIKDAMAALNQEVMQIGQSLYNQPGAGGPGAGPSPGGEGASSGDSSSSKGGDGDDVIDADFTDSQ

— publication doi:10.1101/2024.01.08.574726
